Assay results taken from PMC11006888.
No constants are given. Whether binding was seen depends on the method and setting. In cells and extracts the contact can be indirect. These calls come from enrichment with a bait or labelling near it, and not all partners need be listed. For part of these data: No binding means not detected with the bait.

T1: YCF4 (Arabidopsis thaliana (endogenous in thylakoids)) (UniProt P56788)
T1 sequence: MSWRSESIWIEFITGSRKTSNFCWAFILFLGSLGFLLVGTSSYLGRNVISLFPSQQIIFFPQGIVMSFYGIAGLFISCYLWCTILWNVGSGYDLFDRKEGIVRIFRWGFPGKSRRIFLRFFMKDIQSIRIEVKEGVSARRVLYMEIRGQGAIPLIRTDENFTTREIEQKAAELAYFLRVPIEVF


How the values were obtained:
[1] = biological target: FPB1 (Facilitator of PsbB biogenesis1) (Arabidopsis thaliana (endogenous in thylakoids)); assay: affinity purification with mass spectrometry; precipitates of not cross-linked, β-DM-solubilised wild-type thylakoids with FPB1, PAM68 and YCF4 antibodies and preimmune serum; LC-MS/MS of gel slices
[2] = biological target: T1, YCF4 (Arabidopsis thaliana (endogenous in thylakoids)); assay: as above

binding [1] | Binder | binding [2]
binds | FtsY (protein, UniProt O80842 41-366) CSAGPSGFFTRLGRLIKEKAKSDVEKVFSGFSKTRENLAVIDELLLFWNLAETDRVLDELEEALLVSDFGPKITVRIVERLREDIMSGKLKSGSEIKDALKESVLEMLAKKNSKTELQLGFRKPAVIMIVGVNGGGKTTSLGKLAHRLKNEGTKVLMAAGDTFRAAASDQLEIWAERTGCEIVVAEGDKAKAATVLSKAVKRGKEEGYDVVLCDTSGRLHTNYSLMEELIACKKAVGKIVSGAPNEILLVLDGNTGLNMLPQAREFNEVVGITGLILTKLDGSARGGCVVSVVEELGIPVKFIGVGEAVEDLQPFDPEAFVNAIFS | –
binds | cpSRP54 (protein, UniProt P37107 76-564) EMFGQLTGGLEAAWSKLKGEEVLTKDNIAEPMRDIRRALLEADVSLPVVRRFVQSVSDQAVGMGVIRGVKPDQQLVKIVHDELVKLMGGEVSELQFAKSGPTVILLAGLQGVGKTTVCAKLACYLKKQGKSCMLIAGDVYRPAAIDQLVILGEQVGVPVYTAGTDVKPADIAKQGLKEAKKNNVDVVIMDTAGRLQIDKGMMDELKDVKKFLNPTEVLLVVDAMTGQEAAALVTTFNVEIGITGAILTKLDGDSRGGAALSVKEVSGKPIKLVGRGERMEDLEPFYPDRMAGRILGMGDVLSFVEKATEVMRQEDAEDLQKKIMSAKFDFNDFLKQTRAVAKMGSMTRVLGMIPGMGKVSPAQIREAEKNLLVMEAMIEVMTPEERERPELLAESPERRKRIAKDSGKTEQQVSALVAQIFQMRVKMKNLMGVMEGGSIPALSGLEDALKAEQKAPPGTARRKRKADSRKKFVESASSKPGPRGFGSGN | –
binds | Alb3 (protein, UniProt Q8LBP4 57-462) SLNEIPPFHGLDSSVDIGAIFTRAESLLYTIADAAVVGADSVVTTDSSAVQKSGGWFGFISDAMELVLKILKDGLSAVHVPYAYGFAIILLTIIVKAATYPLTKQQVESTLAMQNLQPKIKAIQQRYAGNQERIQLETSRLYKQAGVNPLAGCLPTLATIPVWIGLYQALSNVANEGLFTEGFFWIPSLGGPTSIAARQSGSGISWLFPFVDGHPPLGWYDTVAYLVLPVLLIASQYVSMEIMKPPQTDDPAQKNTLLVFKFLPLMIGYFALSVPSGLSIYWLTNNVLSTAQQVYLRKLGGAKPNMDENASKIISAGRAKRSIAQPDDAGERFRQLKEQEKRSKKNKAVAKDTVELVEESQSESEEGSDDEEEEAREGALASSTTSKPLPEVGQRRSKRSKRKRTV | no binding

Binder | binding [1] | binding [2]
SecY1 (protein, UniProt Q38885 68-551) SSEASVFDPLGINPDETSGLSSIWESFVSLLSPSFESSSGNRRDKPSSGRGVAAAIEDSSIDFGDFFKGPLPGKFLKLLGFLALSRLGIYIPLGGVNREAFVGNLDQNSILSTLDTFSGGGIGRLGICSLGIVPFINAQIVFQLLAQVYPKLQDLQKKEGEAGRKKILQYTRYASVGFAIVQAIGQVFYLRPYVNDFSTEWVVSSVTLLTLGSVLTTYIGERISDLKLGNGTSLLIFTSIISYLPASFGRTTAEALQEGNYTGLGTIVVSFLLLVLGIVYVQEAERKIPLNYASRYTSKAGGLQKSAYLPFKVNSAGVMPIIFSTSSLALPATLARFTGISALKNVAFALTPGGSFYLPTNILLIAFFNYYYTFLQLDPDDVSEQLKRQGASIPLVRPGKSTALFIKTVLGRISVLGSAFLAVLAAGPAVVEQITHLTAFRGFAGTSVLILVGCATDTARKVQAEIISQKYKNIEFYELDKYDP | binds | no binding
